Experimental data: PubChem BioAssay AID686943 (Drosophila RNAi Screening Center, 2013)
In all, the deposit lists about 23,000 reagents; shown is a random part of those that have a named target and a result. 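Extra replicates exist only for a retested subset of genes; insulin dose and duration not given; both raised and lowered dpERK matter.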 Further read-outs or replicates are left out here. Not given: the amount of reagent, the time to read-out.

Test: 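Search across the genome for regulators of signalling from receptor tyrosine kinase to ERK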 (primary screen)
Cells: Drosophila S2R+ haemocyte-like cells expressing YFP-tagged ERK (Rolled)
Reagent: long dsRNA against Drosophila genes
Treatment: insulin stimulation versus unstimulated cells; dose and duration not given
Measurement: 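Per-plate z-scores of phospho-ERK immunostaining normalised to YFP-tagged ERK, measured with and without insulin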
Direction: replicate 1, z-score of dpERK with insulin and replicate 2, z-score of dpERK with insulin: higher = more active ERK per ERK-YFP after insulin

Knock-down of cid (GeneID 36495) [DRSC05429] resulted in: replicate 1, z-score of dpERK with insulin 0.48; replicate 2, z-score of dpERK with insulin 0.
For cid (GeneID 36495) [DRSC07592] the deposit lists replicate 1, z-score of dpERK with insulin 0.11; replicate 2, z-score of dpERK with insulin -0.36.
Against CG9649 (GeneID 41727) [DRSC16534], the values are replicate 1, z-score of dpERK with insulin 0.48; replicate 2, z-score of dpERK with insulin 0.18.
With knock-down of CG16953 (GeneID 42437) [DRSC15167], the record shows replicate 1, z-score of dpERK with insulin -0.01; replicate 2, z-score of dpERK with insulin -0.67.
Against CG13840 (GeneID 42705) [DRSC14690], the entry reads replicate 1, z-score of dpERK with insulin -1.45; replicate 2, z-score of dpERK with insulin 0.07.
With knock-down of Obp58c (GeneID 37608) [DRSC04166] the results were replicate 1, z-score of dpERK with insulin -0.46; replicate 2, z-score of dpERK with insulin -0.42.
CG15278 (GeneID 34865) [DRSC02481] scored replicate 1, z-score of dpERK with insulin -0.59; replicate 2, z-score of dpERK with insulin -0.05.
For Hrd3 (GeneID 42806) [DRSC14156], the entry reads replicate 1, z-score of dpERK with insulin 1.93; replicate 2, z-score of dpERK with insulin 0.84.
Silencing of CG11617 (GeneID 33183) [DRSC00321] resulted in: replicate 1, z-score of dpERK with insulin -0.45; replicate 2, z-score of dpERK with insulin 0.19.
For CG11617 (GeneID 33183) [DRSC21786] the deposit lists replicate 1, z-score of dpERK with insulin -0.46; replicate 2, z-score of dpERK with insulin -0.62.
CG34263 (GeneID 5740488) [DRSC07866] showed replicate 1, z-score of dpERK with insulin 0.75; replicate 2, z-score of dpERK with insulin 0.38.
Yp2 (GeneID 31938) [DRSC18732] scored replicate 1, z-score of dpERK with insulin -0.5; replicate 2, z-score of dpERK with insulin 0.66.
For Rh5 (GeneID 34615) [DRSC03412], the values are replicate 1, z-score of dpERK with insulin -0.29; replicate 2, z-score of dpERK with insulin -0.41.
CG3829 (GeneID 38000) [DRSC04423] showed replicate 1, z-score of dpERK with insulin 0.49; replicate 2, z-score of dpERK with insulin -0.03.
After knock-down of Hsc70-1 (GeneID 39542) [DRSC11185] the results were replicate 1, z-score of dpERK with insulin 0.89; replicate 2, z-score of dpERK with insulin -1.05.
Silencing of kune (GeneID 35504) [DRSC04860] resulted in: replicate 1, z-score of dpERK with insulin 0.05; replicate 2, z-score of dpERK with insulin 0.13.
Depletion of MFS12 (GeneID 35745) [DRSC07268] gave: replicate 1, z-score of dpERK with insulin 0.12; replicate 2, z-score of dpERK with insulin -0.02.
For CG9733 (GeneID 43601) [DRSC16549] the deposit lists replicate 1, z-score of dpERK with insulin -0.55; replicate 2, z-score of dpERK with insulin 0.21.
Knock-down of PIP5K59B (GeneID 37633) [DRSC04290] resulted in: replicate 1, z-score of dpERK with insulin 0.09; replicate 2, z-score of dpERK with insulin 1.31.
For PIP5K59B (GeneID 37633) [DRSC04403], the values are replicate 1, z-score of dpERK with insulin 0.63; replicate 2, z-score of dpERK with insulin 0.99.
Silencing of Orco (GeneID 40650) [DRSC12358] gave: replicate 1, z-score of dpERK with insulin 0.38; replicate 2, z-score of dpERK with insulin -0.24.
Silencing of CG18294 (GeneID 40115) [DRSC09891] resulted in: replicate 1, z-score of dpERK with insulin 0.31; replicate 2, z-score of dpERK with insulin -0.96.
Nemp (GeneID 32639) [DRSC20206] gave replicate 1, z-score of dpERK with insulin 0.21; replicate 2, z-score of dpERK with insulin -0.65.
Against CG11670 (GeneID 41608) [DRSC14342], the values are replicate 1, z-score of dpERK with insulin 1.01; replicate 2, z-score of dpERK with insulin 0.66.
Against nkd (GeneID 44843) [DRSC11376] the deposit lists replicate 1, z-score of dpERK with insulin 0.41; replicate 2, z-score of dpERK with insulin -0.51.
After knock-down of CG32066 (GeneID 39206) [DRSC10652], the screen gave replicate 1, z-score of dpERK with insulin 0.49; replicate 2, z-score of dpERK with insulin 0.34.
With knock-down of CG32066 (GeneID 39206) [DRSC10653], the record shows replicate 1, z-score of dpERK with insulin 0.21; replicate 2, z-score of dpERK with insulin 0.82.
Knock-down of CG10713 (GeneID 39508) [DRSC09786] gave: replicate 1, z-score of dpERK with insulin 0.86; replicate 2, z-score of dpERK with insulin 0.42.
For hng3 (GeneID 38090) [DRSC08367] the deposit lists replicate 1, z-score of dpERK with insulin -0.27; replicate 2, z-score of dpERK with insulin 0.48.
Silencing of obst-J (GeneID 40202) [DRSC10821] gave: replicate 1, z-score of dpERK with insulin 1.03; replicate 2, z-score of dpERK with insulin 0.09.
CG12278 (GeneID 42486) [DRSC14494] showed replicate 1, z-score of dpERK with insulin -0.95; replicate 2, z-score of dpERK with insulin -1.49.
After knock-down of crc (GeneID 47767) [DRSC03513], the record shows replicate 1, z-score of dpERK with insulin -0.47; replicate 2, z-score of dpERK with insulin 0.77.
mAcon1 (GeneID 44149) [DRSC01853] showed replicate 1, z-score of dpERK with insulin 0.8; replicate 2, z-score of dpERK with insulin -0.13.
Depletion of CG8838 (GeneID 33551) [DRSC00712] gave: replicate 1, z-score of dpERK with insulin -0.28; replicate 2, z-score of dpERK with insulin -0.15.
Knock-down of hfp (GeneID 38173) [DRSC08731] gave: replicate 1, z-score of dpERK with insulin -0.63; replicate 2, z-score of dpERK with insulin -0.21.
hfp (GeneID 38173) [DRSC08732] scored replicate 1, z-score of dpERK with insulin 0.34; replicate 2, z-score of dpERK with insulin 0.69.
hfp (GeneID 38173) [DRSC22408] scored replicate 1, z-score of dpERK with insulin 0.81; replicate 2, z-score of dpERK with insulin 0.03.
Silencing of CG12384 (GeneID 36224) [DRSC06145] came out at: replicate 1, z-score of dpERK with insulin 0.86; replicate 2, z-score of dpERK with insulin -0.31.
With knock-down of Lk6 (GeneID 44672) [DRSC12867], the record shows replicate 1, z-score of dpERK with insulin -1.74; replicate 2, z-score of dpERK with insulin -1.1.
For Lk6 (GeneID 44672) [DRSC16728] the deposit lists replicate 1, z-score of dpERK with insulin 0.19; replicate 2, z-score of dpERK with insulin 0.58.

An excerpt of the results above, as a working copy:
PIP5K59B (GeneID 37633) [DRSC04290]: replicate 1, z-score of dpERK with insulin = 0.09; replicate 2, z-score of dpERK with insulin = 1.31
PIP5K59B (GeneID 37633) [DRSC04403]: replicate 1, z-score of dpERK with insulin = 0.63; replicate 2, z-score of dpERK with insulin = 0.99
Orco (GeneID 40650) [DRSC12358]: replicate 1, z-score of dpERK with insulin = 0.38; replicate 2, z-score of dpERK with insulin = -0.24
